# In US12582619B2 (priority 2020, dated 2026):
# Chains of the proteins cited; added tags and fusions are not shown.
# UniProt Q99720, whole entry: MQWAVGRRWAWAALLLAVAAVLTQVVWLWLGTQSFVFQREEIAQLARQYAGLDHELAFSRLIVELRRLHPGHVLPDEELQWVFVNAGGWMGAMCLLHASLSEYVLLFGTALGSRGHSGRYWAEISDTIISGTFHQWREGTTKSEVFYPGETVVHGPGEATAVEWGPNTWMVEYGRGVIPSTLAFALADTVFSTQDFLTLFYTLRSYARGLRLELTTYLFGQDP
# The structures given here were assigned with low confidence; some may be wrong.
# Biological target: Sigma1 (Homo sapiens, UniProt Q99720)
# Assay: Sigma1 binding, Ki
# Conditions: read-out: Sigma1, Ki
smiles,measurement,value
COc1cc(NC(=N)NCCC(C)(C)Oc2ccc(C(F)(F)F)cc2)ncc1C#N,Ki,14 nM
